In patent US20150330981A1 (published 2015):
These are yes or no findings as the source states them, for the method shown. For part of these data: In cells and extracts the contact can be indirect. Some binding calls cover weakened binding; strength is not graded here. For part of these data: Sequences can lack the tags named with a protein. Values belong to the substance of their own block, whether it stands above or below them.

The chains behind the UniProt entries cited, without tags or fusion partners. Where a name states a change or a piece, a line headed by the entry shows the natural chain unless it says otherwise.
UniProt Q86TM6: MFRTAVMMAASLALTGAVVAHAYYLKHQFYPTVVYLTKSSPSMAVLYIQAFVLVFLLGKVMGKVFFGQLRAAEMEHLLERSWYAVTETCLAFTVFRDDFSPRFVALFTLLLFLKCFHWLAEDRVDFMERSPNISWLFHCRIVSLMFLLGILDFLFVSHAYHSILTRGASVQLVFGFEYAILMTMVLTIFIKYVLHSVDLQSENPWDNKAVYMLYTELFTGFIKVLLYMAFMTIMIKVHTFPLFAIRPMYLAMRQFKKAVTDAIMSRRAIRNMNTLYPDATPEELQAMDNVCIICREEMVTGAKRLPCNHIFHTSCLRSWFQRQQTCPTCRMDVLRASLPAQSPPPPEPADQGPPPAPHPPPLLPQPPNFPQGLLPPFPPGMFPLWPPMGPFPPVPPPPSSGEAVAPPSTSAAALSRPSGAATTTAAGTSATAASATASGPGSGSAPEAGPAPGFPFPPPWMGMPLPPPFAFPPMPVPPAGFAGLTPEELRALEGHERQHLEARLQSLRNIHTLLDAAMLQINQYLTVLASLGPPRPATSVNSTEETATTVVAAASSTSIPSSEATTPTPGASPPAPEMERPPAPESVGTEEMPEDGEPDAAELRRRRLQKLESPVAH

What was measured:
[1] = biological target: T1, HA PGC-1β (full-length mouse PGC-1β with HA tag) (mouse) (UniProt Q8VHJ7); assay: GST pull-down, Western blot (legend of FIG. 5)
T1 sequence (looked up): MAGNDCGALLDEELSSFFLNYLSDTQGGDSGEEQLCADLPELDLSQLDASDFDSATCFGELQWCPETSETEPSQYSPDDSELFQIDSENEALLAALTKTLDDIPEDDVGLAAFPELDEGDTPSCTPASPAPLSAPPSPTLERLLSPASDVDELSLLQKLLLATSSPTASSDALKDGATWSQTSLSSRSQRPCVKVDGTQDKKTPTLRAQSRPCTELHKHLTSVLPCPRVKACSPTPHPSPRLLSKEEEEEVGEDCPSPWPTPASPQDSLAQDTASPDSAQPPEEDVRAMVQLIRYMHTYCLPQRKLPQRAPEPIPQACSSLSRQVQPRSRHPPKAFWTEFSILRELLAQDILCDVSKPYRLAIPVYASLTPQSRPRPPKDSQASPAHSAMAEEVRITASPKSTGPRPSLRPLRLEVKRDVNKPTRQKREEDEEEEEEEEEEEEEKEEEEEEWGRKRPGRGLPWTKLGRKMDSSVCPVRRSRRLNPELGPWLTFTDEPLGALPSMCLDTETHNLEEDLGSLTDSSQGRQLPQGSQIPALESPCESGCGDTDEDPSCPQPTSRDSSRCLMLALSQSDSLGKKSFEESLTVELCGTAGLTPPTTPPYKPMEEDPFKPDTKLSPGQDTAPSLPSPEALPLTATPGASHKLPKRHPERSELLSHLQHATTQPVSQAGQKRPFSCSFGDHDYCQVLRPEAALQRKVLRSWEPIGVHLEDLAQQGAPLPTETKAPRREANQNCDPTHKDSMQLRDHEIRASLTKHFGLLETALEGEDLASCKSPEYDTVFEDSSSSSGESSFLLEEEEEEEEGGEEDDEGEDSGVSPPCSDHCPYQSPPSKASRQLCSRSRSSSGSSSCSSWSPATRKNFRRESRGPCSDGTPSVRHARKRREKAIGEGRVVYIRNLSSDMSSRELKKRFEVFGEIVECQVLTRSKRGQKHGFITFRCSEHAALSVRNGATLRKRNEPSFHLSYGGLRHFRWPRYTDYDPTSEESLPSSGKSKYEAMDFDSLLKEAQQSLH

[2] = biological target: T1, HA PGC-1β (full-length mouse PGC-1β with HA tag) (mouse); assay: GST pull-down of in vitro translated HA PGC-1β with GST-fused synoviolin fragments, anti-HA Western blot
[3] = biological target: T2, endogenous PGC-1β in whole cell extract from HEK-293 (UniProt Q86YN6); assay: co-immunoprecipitation, Western blot (legend of FIG. 6B)
T2 sequence (looked up): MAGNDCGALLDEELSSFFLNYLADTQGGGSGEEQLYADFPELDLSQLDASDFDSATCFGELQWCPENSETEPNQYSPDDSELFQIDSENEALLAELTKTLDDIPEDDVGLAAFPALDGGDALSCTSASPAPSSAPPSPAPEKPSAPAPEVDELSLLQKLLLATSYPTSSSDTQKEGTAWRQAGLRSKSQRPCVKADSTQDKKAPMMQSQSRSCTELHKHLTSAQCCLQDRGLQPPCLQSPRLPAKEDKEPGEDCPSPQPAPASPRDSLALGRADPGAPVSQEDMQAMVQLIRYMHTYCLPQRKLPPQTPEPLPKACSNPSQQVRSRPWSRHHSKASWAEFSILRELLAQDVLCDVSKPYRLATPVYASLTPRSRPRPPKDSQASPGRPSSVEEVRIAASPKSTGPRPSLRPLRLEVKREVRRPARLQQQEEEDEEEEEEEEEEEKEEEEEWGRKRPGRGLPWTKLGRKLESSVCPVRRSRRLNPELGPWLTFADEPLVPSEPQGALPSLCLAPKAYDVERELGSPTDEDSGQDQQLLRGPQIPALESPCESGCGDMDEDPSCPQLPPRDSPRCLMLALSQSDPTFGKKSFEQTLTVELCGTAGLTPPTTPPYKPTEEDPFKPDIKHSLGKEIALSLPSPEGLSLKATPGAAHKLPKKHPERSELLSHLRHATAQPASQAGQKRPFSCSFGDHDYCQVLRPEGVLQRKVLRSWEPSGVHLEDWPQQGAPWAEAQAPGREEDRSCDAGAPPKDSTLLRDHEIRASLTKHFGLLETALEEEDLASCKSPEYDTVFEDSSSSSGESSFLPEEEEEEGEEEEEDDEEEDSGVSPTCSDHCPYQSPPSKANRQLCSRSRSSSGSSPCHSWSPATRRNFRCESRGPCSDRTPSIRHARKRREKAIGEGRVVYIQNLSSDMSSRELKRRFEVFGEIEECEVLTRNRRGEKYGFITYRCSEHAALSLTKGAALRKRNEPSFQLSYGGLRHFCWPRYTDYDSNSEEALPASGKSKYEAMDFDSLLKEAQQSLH

[4] = biological target: T2, endogenous PGC-1β in whole cell extract from HEK-293; assay: immunoprecipitation with anti-synoviolin antibody from HEK-293 extract, anti-PGC-1β immunoblot
[5] = biological target: T1, HA PGC-1β (full-length mouse PGC-1β with HA tag) (mouse); assay: co-immunoprecipitation with anti-FLAG from HEK-293T extract, anti-HA Western blot
[6] = biological target: T1, HA PGC-1β (full-length mouse PGC-1β with HA tag) (mouse); assay: co-immunoprecipitation, Western blot (legend of FIG. 6A)

binding [1]: binds
binding [2]: binds
Substance: SyU domain of synoviolin (236 to 270 amino acid sequences) fused to GST (from UniProt Q86TM6 236-270) (enzyme)

binding [3]: binds
binding [4]: binds
Substance: synoviolin in whole cell extract from HEK-293 (from UniProt Q86TM6 1-617) (enzyme)

binding [5]: binds
binding [6]: binds
Substance: synoviolin with FLAG tag (SYVN1/FLAG) (from UniProt Q86TM6 1-617) (enzyme)
